The source of these data is paper PMC11545987.

Chains of the proteins cited; added tags and fusions are not shown. Lines headed by an entry give the natural chain unless they say otherwise; changes in a name come on top.
UniProt Q9UI95: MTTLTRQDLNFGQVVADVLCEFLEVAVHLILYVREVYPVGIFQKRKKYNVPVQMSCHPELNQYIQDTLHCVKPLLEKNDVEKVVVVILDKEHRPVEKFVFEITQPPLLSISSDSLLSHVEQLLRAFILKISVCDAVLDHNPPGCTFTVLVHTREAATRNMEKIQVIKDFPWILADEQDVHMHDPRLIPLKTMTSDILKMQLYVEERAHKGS
UniProt Q9UM11: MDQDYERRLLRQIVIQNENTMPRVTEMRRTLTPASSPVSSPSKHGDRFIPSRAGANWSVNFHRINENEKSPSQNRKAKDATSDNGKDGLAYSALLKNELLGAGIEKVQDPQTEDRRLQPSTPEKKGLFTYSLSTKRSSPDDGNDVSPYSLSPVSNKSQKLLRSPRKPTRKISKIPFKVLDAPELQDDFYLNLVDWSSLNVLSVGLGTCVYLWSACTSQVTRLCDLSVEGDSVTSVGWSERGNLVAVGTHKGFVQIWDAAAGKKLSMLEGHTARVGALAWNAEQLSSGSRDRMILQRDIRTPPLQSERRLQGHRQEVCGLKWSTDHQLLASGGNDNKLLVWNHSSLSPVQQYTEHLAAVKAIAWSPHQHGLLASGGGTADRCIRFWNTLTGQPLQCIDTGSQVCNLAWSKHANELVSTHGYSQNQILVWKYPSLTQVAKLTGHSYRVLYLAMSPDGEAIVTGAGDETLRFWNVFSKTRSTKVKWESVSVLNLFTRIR

The target of test [1] is HA-MAD2L2 A135D (UniProt Q9UI95). Nature of the test: co-IP; HEK-293 cells co-transfected with the tagged plasmids; anti-HA IP from cleared lysate (50 mM Tris-HCl pH 8, 150 mM NaCl, 20 mM EGTA, 50 mM NaF, 1% Triton X-100), 4 °C, protein G-Sepharose; immunoblot.
The target in test [2] is HA-MAD2L2 WT (UniProt Q9UI95). Described as above.
Test [3] concerns the target myc-CDH1 (UniProt Q9UM11). As to the kind of experiment: co-IP; HEK-293 cells co-transfected with the tagged plasmids; anti-myc IP from cleared lysate (50 mM Tris-HCl pH 8, 150 mM NaCl, 20 mM EGTA, 50 mM NaF, 1% Triton X-100), 4 °C, protein G-Sepharose; immunoblot.
Test [4] concerns the target myc-MAD2L2 WT (UniProt Q9UI95). The test is described as above.
In test [5] the target is MAD2L2, endogenous (human (endogenous in U2OS)) (UniProt Q9UI95). Nature of the test: proximity ligation; NaveniFlex PLA on fixed U2OS WT cells transfected with a GFP vector or GFP-CDH1; foci per cell counted as MAD2L2 homodimers.

No constants are given. Whether binding was seen depends on the method and setting. Binding seen in cells or lysates may run through a third protein. Some binding calls cover weakened binding; strength is not graded here.

YFP-CDH1 (from UniProt Q9UM11 1-496): the binding result in test [1] and in test [2] was “binds” throughout.

On to “HA-MAD2L2 WT (from UniProt Q9UI95 1-211)”, for which the binding entry in test [3] is given as “binds”.

For HA-CDH1 WT (from UniProt Q9UM11 1-496), in test [4], the binding entry was “binds”.

In the case of YFP-MAD2L2 (from UniProt Q9UI95 1-211), in test [4], the binding entry is reported as “binds”.

For the substance “HA-CDH1 RAIP (F48A) (from UniProt Q9UM11 1-496)”, the binding result in test [4] was “binds”.

As for “HA-MAD2L2 2DD (K44A + R124A) (from UniProt Q9UI95 1-211)”, the binding result in test [3] was “binds”.

Consider “MAD2L2, endogenous (from UniProt Q9UI95 1-211)”, for which the binding entry in test [5] is “binds”.

For the substance GFP-CDH1 (from UniProt Q9UM11 1-496), in test [5], the binding entry is listed as “binds”.

With mRFP-CDH1 (from UniProt Q9UM11 1-496), in test [2], the binding result is on record as “binds”.

Consider myc-CDH1 (from UniProt Q9UM11 1-496), for which the binding result in test [1] and in test [2] was “binds” in each case.
